The values are deposited in ChEMBL (CHEMBL3988442, “University of Dundee, Small-Polar-MMV Screening Library” (2021)).

Chains of the proteins cited; added tags and fusions are not shown.
UniProt P9WPC5, whole entry: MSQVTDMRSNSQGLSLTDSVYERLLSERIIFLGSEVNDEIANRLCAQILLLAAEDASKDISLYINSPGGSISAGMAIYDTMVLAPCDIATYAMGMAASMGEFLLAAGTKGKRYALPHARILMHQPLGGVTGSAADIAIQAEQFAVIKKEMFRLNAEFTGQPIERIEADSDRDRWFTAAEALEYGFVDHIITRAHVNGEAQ
UniProt P9WPC3, whole entry partner: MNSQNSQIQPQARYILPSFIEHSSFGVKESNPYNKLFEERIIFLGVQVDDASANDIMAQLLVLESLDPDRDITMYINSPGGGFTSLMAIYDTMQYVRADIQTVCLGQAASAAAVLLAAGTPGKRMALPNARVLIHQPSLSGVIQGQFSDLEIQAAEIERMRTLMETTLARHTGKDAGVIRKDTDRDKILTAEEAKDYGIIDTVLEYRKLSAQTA

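Protease assay of ClpP1P2, read by the AMC dye that it sets free. Target: ClpP1P2, Mycobacterium tuberculosis (UniProt P9WPC5 and UniProt P9WPC3). Compounds at 50 µM. Higher reads as stronger inhibition, judged from the few compounds that gave an IC50. Most other retested compounds had strongly negative values. Of about 69,000 compounds tested this way, about 10 (0.015%) reached 50% or more in at least one test.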

Results are given as percent effect.
The controls that fix the scale are not given in the record; negative values are as filed.
The compounds are a random part of those screened.

| # | structure | percent effect |
|---|---|---|
| 1 | `CC(C)c1noc(CN(Cc2cccnc2)C2CN3CCC2CC3)n1` (stereo not given) | -8.745% |
| 2 | `NC(=O)c1ccc(CN2CCCC(N3CCCC3)C2)cc1` (stereo not given) | 7.604% |
| 3 | `Cc1cccc(N2CCC3(CCN(Cc4ccccn4)CC3)CC2)n1` | 1.695% |
| 4 | `COc1ccc(-n2nnc(C(N)=O)n2)cc1` | -2.734% |
| 5 | `COc1ccc(OC)c(-c2nc(CN(C)Cc3nonc3C)c(C)o2)c1` | 11.22% |
| 6 | `O=C(NCCc1nc(-c2cccnc2)no1)c1ccc(C2CCCO2)s1` (stereo not given) | 13.78% |
| 7 | `Cc1ncsc1C(=O)N1CCc2nnc(C3CCCCN3C)n2CC1` (stereo not given) | -0.1509% |
| 8 | `NS(=O)(=O)CCCC(=O)N1CCC2(CC1)c1ccccc1CC2O` (stereo not given) | -5.676% |
| 9 | `Cc1cc(N(C)C)nc(C2COCCN2Cc2csc(C)n2)n1` (stereo not given) | -0.6862% |
| 10 | `CCN(CC1CCCO1)C(=O)Nc1cc(C)ccc1S(C)(=O)=O` (stereo not given) | 8.71% |
| 11 | `CCc1noc(C2CCCCN2C(=O)c2cccnc2)n1` (stereo not given) | -2.258% |
| 12 | `COCCNC(=O)c1cc2c(c3ccccc3n2C)n1C(=O)N(C)C` | -19.73% |
| 13 | `COCCc1nnc(NC(=O)Cc2ccccc2Cl)o1` | -17.8% |
| 14 | `NC(=O)Nc1cccc(Oc2ccccn2)c1` | -10.45% |
| 15 | `CN(C)c1nc2c(c(N(C)Cc3n[nH]c4c3CCCC4)n1)CCNCC2` | -16.08% |
| 16 | `CCCS(=O)(=O)N1CCC2(CCCN(c3ncc(F)cn3)C2)C1` (stereo not given) | -1.168% |
| 17 | `Cc1nccnc1C1CCN(C2CCCC2O)CC1` (stereo not given) | -2.119% |
| 18 | `CN1CCCC(c2cccc(CCC(=O)NCC3(C)COC3)n2)C1` (stereo not given) | -5.177% |
| 19 | `COCc1cc(NCc2cccnc2Oc2ccc(C)nc2)ncn1` | -1.684% |
| 20 | `Cc1ccccc1OCCCC(=O)NCC1CN(C)CCO1` (stereo not given) | -18.3% |
| 21 | `Cc1nccn1-c1ncccc1CNC(=O)c1ccc(O)nc1` | 0.1649% |
| 22 | `CN(Cc1nc(-c2ccccc2)no1)Cc1cnc(N2CCOCC2)s1` | -2.195% |
| 23 | `c1cncc(COC[C@H]2CC[C@H]3[C@H](CCN3Cc3cccs3)O2)c1` | 18.21% |
| 24 | `CC(=O)N1CCC(N2CCC(c3nc(C)cc(C)n3)C2)CC1` (stereo not given) | -7.471% |
| 25 | `CC[C@H](C)[C@H](NC(=O)c1ccccc1-n1cnnn1)C(=O)OC` | 1.323% |
| 26 | `COc1ccc(/C=C/CN2CCC3(CC2)CN(C)C(=O)O3)cc1` | -5.469% |
| 27 | `Cn1nc(CN2CCOCC2)c2c1CN(Cc1ccsc1)C2` | 6.304% |
| 28 | `COC(=O)c1cccc(S(=O)(=O)Nc2ccc(F)c(C(N)=O)c2)c1` | 12.04% |
| 29 | `O=C1COC2(CCN(Cc3ccco3)CC2)CN1Cc1cccnc1` | 3.694% |
| 30 | `CC(C)OCCN(C)C(C)c1cccc(S(N)(=O)=O)c1` (stereo not given) | 6.947% |
| 31 | `c1nnc(Nc2cncc(C3CCCN3CC3CC3)n2)s1` (stereo not given) | -30.87% |
| 32 | `COc1cc(CNC(C)c2cccc(Cl)c2)cc(OC)c1OC` (stereo not given) | 11.19% |
| 33 | `COc1cccc2c(=O)n(CCN3CCNCC3)cnc12` | 0.2989% |
| 34 | `Cc1nnc2n1CCN(C(=O)c1cc(Br)c[nH]1)C2` | -20.08% |
| 35 | `COc1cc(Cl)c(NC(=O)NCCn2cccc2)cc1OC` | -0.07292% |
| 36 | `Fc1ccc(CN2CCO[C@H]3[C@H](OCCN4CCCC4)CC[C@@H]32)cc1` | -1.92% |
| 37 | `Cc1nn(CC(=O)Nc2ccon2)cc1Br` | -25.79% |
| 38 | `Cc1ccc(C)c(NC(=O)Cc2c(C)nc3c(c2C)c(=O)[nH]n3C)c1` | 1.773% |
| 39 | `O=C(C1CC1)N1CCN(c2ccc(-n3cncn3)nn2)CC1` | 3.914% |
| 40 | `CCOC1COC2(CCN(Cc3ccc(C)c(C)c3)CC2)C1` (stereo not given) | 4.01% |
| 41 | `Cc1c(C)n2c(SCC(=O)N3CCCCC3)nnc2[nH]c1=O` | 20.28% |
| 42 | `Cc1cc(C)nc(C2CCN(C(=O)c3cncnc3C)C2)n1` (stereo not given) | -4.282% |
| 43 | `CC(NCc1ccc(F)cc1)c1ccc(S(C)(=O)=O)cc1` (stereo not given) | -1.904% |
| 44 | `N#Cc1nccnc1N1CCC(c2nc(C(F)(F)F)c[nH]2)CC1` | 2.673% |
| 45 | `CN(Cc1ccccc1)c1ncccc1CNC(=O)c1ccnn1C` | -10.78% |
| 46 | `O=C(NCC1(c2ccc(F)cc2)CCCC1)N1CCOC(CO)C1` (stereo not given) | -6.054% |
| 47 | `CCOc1nnc(CN2CCOC(CNc3cccnn3)C2)s1` (stereo not given) | 21.81% |
| 48 | `Cc1cc(N2CCc3c(ncn3C3CC3)C2)nc(N)n1` | 7.763% |
| 49 | `O=C(C1CC=CC1)N1C[C@@H](OCc2cccnc2)[C@H]2OCCC[C@H]21` | 7.469% |
| 50 | `O=C(c1ccnnc1)N1CCc2onc(Cn3cccn3)c2C1` | 5.921% |
| 51 | `CCC[C@H]1CN(Cc2ccc3c(c2)OCCO3)C[C@@H]1NC(=O)COC` | -5.024% |
| 52 | `CN1CCN(C(=O)c2cc(-c3cccs3)cs2)CC1` | -15.73% |
| 53 | `O=C(Cc1cccnc1)N1CC(Cc2nccc3cc[nH]c23)C1` | -5.985% |
| 54 | `COCC1CCN(C(=O)c2cn(Cc3ccccc3F)nn2)CC1` | -9.472% |
| 55 | `Cn1cnnc1-c1cncc(NCc2ccccc2Br)c1` | 1.644% |
| 56 | `COc1cccc(-c2nc(CNCc3cccnc3)cs2)c1` | -2.581% |
| 57 | `CCN(C)S(=O)(=O)NCC1(c2cccc(Br)c2)CC1` | -14.46% |
| 58 | `CN(CCc1nc2cc(Cl)ccc2[nH]1)C(=O)c1ncn[nH]1` | -1.363% |
| 59 | `Cc1ccc(CN(C)C(=O)CNC(=O)N2CCc3ccccc3C2)o1` | -7.052% |
| 60 | `CCOC(=O)c1cnn(C2CCN(C(=O)CC3C=CCC3)CC2)c1N` (stereo not given) | -4.626% |
| 61 | `CC1CN(c2ncccc2C(=O)N[C@@H]2CCCc3ccccc32)CCN1` (stereo not given in full) | -2.465% |
| 62 | `CN(C)C(=O)N1CC(C(=O)NCC2CC2)C2(CCOCC2)C1` (stereo not given) | -8.644% |
| 63 | `Cc1nc(CN2CCCn3cnc(COCC4CC4)c3C2)cs1` | -11.03% |
| 64 | `CCOc1ncccc1CNC(=O)CN1CCCCCC1=O` | -11.3% |
| 65 | `O=C1NCCCCC1NC(=O)C1(c2cccc(Cl)c2)CC1` (stereo not given) | -17.21% |
| 66 | `CO[C@@H]1CO[C@@]2(CCN(C(=O)COc3ccccc3C)C2)C1` | 2.203% |
| 67 | `Cc1ccccc1C(=O)N1CC[C@@H](N2CCC(O)CC2)[C@H](O)C1` | -14.86% |
| 68 | `Cc1ccc(CN(C)C(=O)NCC(C)(C)S(C)(=O)=O)s1` | -6.08% |
| 69 | `Cn1ccnc1CNC(=O)N1CCCC(Cc2nccn2C)C1` (stereo not given) | -1.591% |
| 70 | `COc1cc(CNC(=O)Nc2nnc(C(C)C)s2)ccn1` | -20.32% |
| 71 | `O=C(CCCc1cn[nH]c1)N1C[C@H](CO)C[C@H](CN2CCCC2)C1` | -4.967% |
| 72 | `COc1cc(CNC(C)c2ccc(F)c(F)c2)cc2c1OCCO2` (stereo not given) | -7.037% |
| 73 | `CCC(C(=O)NCc1csc(-c2ncccn2)n1)n1cccn1` (stereo not given) | 4.893% |
| 74 | `CC[C@@H]1N(Cc2ccncc2)CCC[C@]12CCC(=O)N2CCOC` | -11.56% |
| 75 | `Cc1cn(-c2ccccc2)nc1NS(=O)(=O)c1ccc(C(=O)O)cc1` | -6.832% |
| 76 | `CCS(=O)(=O)N1CCCN(CCCOC)CC1` | -15.53% |
| 77 | `COc1ncccc1CNC(=O)c1cccnc1O` | 16.89% |
| 78 | `Cc1cnc(C(=O)N2CCC3(CC2)CC(c2ccccc2)C(=O)N3)cn1` (stereo not given) | 5.883% |
| 79 | `CC(C)NC(=O)C1CN(Cc2cccs2)Cc2ccnn2C1` (stereo not given) | -1.289% |
| 80 | `Cc1ccc(C)c(-c2csc(N)c2C#N)c1` | 6.666% |
| 81 | `Cc1cc(C)n(CC2CN(Cc3nnc(C)o3)CCO2)n1` (stereo not given) | -20.31% |

For reference, 10 entries once more:

{"structure": "Cc1nnc2n1CCN(C(=O)c1cc(Br)c[nH]1)C2", "percent effect": -20.08}
{"structure": "Cc1ccc(C)c(NC(=O)Cc2c(C)nc3c(c2C)c(=O)[nH]n3C)c1", "percent effect": 1.773}
{"structure": "CN(C)C(=O)N1CC(C(=O)NCC2CC2)C2(CCOCC2)C1", "stereo": "stereo not given", "percent effect": -8.644}
{"structure": "Cn1cnnc1-c1cncc(NCc2ccccc2Br)c1", "percent effect": 1.644}
{"structure": "Fc1ccc(CN2CCO[C@H]3[C@H](OCCN4CCCC4)CC[C@@H]32)cc1", "percent effect": -1.92}
{"structure": "O=C(NCC1(c2ccc(F)cc2)CCCC1)N1CCOC(CO)C1", "stereo": "stereo not given", "percent effect": -6.054}
{"structure": "CCN(CC1CCCO1)C(=O)Nc1cc(C)ccc1S(C)(=O)=O", "stereo": "stereo not given", "percent effect": 8.71}
{"structure": "Cc1c(C)n2c(SCC(=O)N3CCCCC3)nnc2[nH]c1=O", "percent effect": 20.28}
{"structure": "COc1ncccc1CNC(=O)c1cccnc1O", "percent effect": 16.89}
{"structure": "COc1cc(CNC(C)c2ccc(F)c(F)c2)cc2c1OCCO2", "stereo": "stereo not given", "percent effect": -7.037}